These are yes or no findings as the source states them, for the method shown. In cells and extracts the contact can be indirect. Here binding means that the protein was enriched with, or labelled near, the bait; the list need not be complete.
Molecular target: SMARCA4 (human (endogenous in G401)) (UniProt P51532)
Experiment: affinity purification with mass spectrometry; as a1, G401 cells induced 48 h to express SMARCB1 W281P in place of the wildtype; compared with the wildtype condition

Chains of the proteins cited; added tags and fusions are not shown.
UniProt P51532: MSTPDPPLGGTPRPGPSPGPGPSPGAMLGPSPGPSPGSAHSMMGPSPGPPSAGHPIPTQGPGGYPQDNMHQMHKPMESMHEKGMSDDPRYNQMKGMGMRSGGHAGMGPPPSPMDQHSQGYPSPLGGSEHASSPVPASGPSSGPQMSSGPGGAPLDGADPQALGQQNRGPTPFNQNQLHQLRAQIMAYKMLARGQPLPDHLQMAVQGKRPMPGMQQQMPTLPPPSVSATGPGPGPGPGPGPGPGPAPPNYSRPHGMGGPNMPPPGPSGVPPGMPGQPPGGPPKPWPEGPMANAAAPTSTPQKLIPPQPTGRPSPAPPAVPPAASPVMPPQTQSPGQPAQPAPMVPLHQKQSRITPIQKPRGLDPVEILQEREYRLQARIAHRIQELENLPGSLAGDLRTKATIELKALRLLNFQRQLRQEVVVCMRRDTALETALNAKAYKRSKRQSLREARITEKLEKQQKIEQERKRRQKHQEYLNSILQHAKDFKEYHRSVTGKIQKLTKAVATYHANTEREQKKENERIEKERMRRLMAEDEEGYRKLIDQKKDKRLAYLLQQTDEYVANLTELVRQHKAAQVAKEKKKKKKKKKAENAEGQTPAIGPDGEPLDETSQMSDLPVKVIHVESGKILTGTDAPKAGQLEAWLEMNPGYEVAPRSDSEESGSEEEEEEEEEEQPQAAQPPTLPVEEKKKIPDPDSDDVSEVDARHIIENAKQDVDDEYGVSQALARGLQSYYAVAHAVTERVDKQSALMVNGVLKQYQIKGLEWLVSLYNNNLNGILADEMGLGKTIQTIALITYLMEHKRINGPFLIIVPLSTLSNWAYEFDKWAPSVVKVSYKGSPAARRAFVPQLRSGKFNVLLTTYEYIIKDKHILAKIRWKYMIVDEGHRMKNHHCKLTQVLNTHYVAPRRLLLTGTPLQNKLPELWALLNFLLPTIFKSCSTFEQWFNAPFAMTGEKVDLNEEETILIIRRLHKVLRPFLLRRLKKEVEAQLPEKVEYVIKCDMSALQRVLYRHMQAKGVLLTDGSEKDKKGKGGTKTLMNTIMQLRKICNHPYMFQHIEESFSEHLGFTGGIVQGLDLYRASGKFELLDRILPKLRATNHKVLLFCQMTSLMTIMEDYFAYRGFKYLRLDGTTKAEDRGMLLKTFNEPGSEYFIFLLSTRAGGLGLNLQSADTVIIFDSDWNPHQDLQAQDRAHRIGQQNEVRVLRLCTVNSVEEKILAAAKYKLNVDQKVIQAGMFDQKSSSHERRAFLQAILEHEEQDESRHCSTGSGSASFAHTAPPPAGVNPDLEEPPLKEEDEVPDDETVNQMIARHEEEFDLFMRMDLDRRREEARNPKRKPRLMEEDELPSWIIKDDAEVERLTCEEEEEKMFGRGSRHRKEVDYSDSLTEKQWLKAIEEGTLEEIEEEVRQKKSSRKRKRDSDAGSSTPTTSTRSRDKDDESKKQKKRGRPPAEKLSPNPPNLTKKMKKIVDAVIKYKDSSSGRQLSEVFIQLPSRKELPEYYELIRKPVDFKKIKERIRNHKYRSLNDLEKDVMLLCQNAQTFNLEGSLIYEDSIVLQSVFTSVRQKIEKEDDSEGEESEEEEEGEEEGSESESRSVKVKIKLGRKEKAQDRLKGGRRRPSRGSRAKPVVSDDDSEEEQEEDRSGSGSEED
UniProt Q9H8M2: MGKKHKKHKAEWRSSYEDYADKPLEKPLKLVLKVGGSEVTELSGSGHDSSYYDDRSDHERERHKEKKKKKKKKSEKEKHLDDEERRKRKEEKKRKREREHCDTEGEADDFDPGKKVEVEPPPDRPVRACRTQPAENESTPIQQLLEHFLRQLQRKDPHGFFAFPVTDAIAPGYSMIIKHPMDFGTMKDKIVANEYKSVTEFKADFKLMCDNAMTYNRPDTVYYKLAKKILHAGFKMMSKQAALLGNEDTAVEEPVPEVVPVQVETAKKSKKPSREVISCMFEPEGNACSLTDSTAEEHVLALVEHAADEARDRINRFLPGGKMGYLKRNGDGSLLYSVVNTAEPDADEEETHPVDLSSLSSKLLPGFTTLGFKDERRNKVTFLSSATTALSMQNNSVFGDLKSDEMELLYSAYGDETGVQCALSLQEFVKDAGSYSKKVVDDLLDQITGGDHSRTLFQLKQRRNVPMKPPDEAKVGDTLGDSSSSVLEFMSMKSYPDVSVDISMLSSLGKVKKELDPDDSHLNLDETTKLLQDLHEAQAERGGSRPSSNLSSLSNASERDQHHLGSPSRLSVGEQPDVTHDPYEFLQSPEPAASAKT
UniProt Q9NZM4: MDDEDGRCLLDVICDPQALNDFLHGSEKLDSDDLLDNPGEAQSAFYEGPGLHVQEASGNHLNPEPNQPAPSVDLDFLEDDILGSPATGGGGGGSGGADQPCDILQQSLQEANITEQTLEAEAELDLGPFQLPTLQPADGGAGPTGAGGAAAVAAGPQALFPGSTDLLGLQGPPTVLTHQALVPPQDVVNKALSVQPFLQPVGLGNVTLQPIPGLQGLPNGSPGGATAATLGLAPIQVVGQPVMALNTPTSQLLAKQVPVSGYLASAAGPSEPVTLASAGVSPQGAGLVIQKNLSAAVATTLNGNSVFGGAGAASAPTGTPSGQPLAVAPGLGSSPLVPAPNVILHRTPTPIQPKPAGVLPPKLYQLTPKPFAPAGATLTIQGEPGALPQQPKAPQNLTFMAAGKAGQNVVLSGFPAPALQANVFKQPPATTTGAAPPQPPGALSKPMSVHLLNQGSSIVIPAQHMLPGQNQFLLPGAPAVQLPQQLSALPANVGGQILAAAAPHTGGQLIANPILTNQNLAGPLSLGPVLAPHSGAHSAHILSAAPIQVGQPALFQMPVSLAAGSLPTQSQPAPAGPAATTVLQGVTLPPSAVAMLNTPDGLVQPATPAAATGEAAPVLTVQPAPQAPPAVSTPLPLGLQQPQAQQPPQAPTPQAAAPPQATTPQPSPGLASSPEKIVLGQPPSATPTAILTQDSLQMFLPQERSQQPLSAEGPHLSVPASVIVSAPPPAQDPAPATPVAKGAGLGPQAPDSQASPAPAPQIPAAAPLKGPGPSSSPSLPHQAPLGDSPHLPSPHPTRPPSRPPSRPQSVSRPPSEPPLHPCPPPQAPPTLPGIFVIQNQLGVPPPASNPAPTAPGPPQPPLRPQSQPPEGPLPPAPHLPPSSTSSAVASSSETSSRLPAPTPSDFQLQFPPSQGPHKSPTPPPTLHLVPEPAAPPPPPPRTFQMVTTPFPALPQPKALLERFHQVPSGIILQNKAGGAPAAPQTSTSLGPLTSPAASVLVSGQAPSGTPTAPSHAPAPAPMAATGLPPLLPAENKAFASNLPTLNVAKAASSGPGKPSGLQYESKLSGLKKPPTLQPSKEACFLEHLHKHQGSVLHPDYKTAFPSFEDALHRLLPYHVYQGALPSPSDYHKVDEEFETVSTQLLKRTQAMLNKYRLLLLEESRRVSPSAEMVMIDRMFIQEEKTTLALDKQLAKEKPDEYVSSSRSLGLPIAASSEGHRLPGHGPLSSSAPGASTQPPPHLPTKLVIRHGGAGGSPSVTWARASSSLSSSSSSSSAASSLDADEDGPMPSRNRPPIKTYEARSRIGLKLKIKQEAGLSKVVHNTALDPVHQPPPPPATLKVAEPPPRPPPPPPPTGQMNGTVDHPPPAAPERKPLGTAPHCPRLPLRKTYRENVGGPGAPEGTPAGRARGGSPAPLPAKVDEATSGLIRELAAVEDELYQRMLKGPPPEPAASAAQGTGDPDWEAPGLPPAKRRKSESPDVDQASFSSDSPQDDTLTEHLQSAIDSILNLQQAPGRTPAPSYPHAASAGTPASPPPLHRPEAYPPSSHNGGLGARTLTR
UniProt Q2KHR3: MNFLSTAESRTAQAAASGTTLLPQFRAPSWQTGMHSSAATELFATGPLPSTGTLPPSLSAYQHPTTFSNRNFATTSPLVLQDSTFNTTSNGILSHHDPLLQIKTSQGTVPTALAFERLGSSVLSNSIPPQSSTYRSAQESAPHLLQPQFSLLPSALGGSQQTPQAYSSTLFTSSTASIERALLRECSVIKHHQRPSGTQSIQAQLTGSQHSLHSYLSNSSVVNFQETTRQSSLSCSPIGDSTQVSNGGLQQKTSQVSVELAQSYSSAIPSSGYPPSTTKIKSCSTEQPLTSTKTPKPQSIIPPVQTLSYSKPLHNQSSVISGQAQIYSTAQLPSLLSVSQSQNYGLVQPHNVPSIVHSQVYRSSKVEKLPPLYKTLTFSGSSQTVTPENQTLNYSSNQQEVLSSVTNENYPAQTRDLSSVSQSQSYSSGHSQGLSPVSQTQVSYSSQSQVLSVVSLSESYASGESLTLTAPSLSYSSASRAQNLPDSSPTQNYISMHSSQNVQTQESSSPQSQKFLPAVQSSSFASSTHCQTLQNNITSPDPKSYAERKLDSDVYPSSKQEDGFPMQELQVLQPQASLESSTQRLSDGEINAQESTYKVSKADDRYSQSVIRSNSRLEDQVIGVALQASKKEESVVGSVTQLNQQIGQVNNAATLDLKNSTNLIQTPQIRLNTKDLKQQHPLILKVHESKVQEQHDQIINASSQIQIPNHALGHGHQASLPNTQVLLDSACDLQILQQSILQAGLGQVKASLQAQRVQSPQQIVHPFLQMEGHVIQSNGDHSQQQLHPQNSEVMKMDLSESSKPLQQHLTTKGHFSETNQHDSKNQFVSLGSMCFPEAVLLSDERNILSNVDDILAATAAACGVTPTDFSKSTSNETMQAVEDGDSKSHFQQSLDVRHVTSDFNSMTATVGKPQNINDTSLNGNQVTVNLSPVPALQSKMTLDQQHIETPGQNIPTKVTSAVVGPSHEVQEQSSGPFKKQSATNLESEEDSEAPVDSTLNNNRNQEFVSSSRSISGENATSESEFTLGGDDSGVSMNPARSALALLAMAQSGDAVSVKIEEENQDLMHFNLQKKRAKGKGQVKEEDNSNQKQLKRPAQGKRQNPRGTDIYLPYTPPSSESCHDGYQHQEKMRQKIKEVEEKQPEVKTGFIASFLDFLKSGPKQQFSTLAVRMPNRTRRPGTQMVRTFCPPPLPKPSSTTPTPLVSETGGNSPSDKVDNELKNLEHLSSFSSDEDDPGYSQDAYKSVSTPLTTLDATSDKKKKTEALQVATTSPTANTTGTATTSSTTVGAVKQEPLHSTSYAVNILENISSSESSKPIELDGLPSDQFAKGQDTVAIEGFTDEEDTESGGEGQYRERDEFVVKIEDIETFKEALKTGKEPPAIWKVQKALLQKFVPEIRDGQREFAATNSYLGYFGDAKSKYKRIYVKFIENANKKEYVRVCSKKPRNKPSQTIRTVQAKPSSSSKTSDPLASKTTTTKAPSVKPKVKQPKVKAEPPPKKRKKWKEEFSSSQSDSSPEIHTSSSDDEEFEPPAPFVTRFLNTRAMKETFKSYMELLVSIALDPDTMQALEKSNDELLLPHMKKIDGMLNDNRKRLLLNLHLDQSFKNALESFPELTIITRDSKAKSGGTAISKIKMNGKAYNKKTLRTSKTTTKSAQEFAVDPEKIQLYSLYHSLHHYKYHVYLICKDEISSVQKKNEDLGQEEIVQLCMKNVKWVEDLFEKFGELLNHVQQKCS
UniProt Q13263: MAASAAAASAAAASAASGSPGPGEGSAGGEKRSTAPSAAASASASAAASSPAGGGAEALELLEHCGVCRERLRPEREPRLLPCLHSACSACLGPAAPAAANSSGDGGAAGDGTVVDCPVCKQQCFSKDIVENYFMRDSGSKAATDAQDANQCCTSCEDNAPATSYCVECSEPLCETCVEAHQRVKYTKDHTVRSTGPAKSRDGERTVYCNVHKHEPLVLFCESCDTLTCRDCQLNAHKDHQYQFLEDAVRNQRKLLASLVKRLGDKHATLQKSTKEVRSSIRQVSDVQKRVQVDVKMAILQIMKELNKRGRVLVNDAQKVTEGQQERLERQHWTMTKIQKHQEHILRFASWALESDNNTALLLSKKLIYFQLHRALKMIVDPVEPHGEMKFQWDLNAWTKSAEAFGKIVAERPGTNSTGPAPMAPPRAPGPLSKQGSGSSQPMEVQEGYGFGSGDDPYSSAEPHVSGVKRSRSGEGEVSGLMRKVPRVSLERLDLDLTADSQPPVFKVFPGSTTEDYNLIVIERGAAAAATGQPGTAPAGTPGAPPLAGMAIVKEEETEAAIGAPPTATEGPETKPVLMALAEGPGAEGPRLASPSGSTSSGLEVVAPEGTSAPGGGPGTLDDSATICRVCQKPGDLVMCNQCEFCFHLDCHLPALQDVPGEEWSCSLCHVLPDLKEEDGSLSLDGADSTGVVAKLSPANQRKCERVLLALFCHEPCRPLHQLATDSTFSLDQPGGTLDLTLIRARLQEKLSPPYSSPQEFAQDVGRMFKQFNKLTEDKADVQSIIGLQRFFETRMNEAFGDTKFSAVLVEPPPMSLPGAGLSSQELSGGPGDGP

| Molecule | binding |
| --- | --- |
| RBM28 (protein, UniProt Q9NW13 1-759) MAGLTLFVGRLPPSARSEQLEELFSQVGPVKQCFVVTEKGSKACRGFGYVTFSMLEDVQRALKEITTFEGCKINVTVAKKKLRNKTKEKGKNENSECPKKEPKAKKAKVADKKARLIIRNLSFKCSEDDLKTVFAQFGAVLEVNIPRKPDGKMRGFGFVQFKNLLEAGKALKGMNMKEIKGRTVAVDWAVAKDKYKDTQSVSAIGEEKSHESKHQESVKKKGREEEDMEEEENDDDDDDDDEEDGVFDDEDEEEENIESKVTKPVQIQKRAVKRPAPAKSSDHSEEDSDLEESDSIDDGEELAQSDTSTEEQEDKAVQVSNKKKRKLPSDVNEGKTVFIRNLSFDSEEEELGELLQQFGELKYVRIVLHPDTEHSKGCAFAQFMTQEAAQKCLLAASPENEAGGLKLDGRQLKVDLAVTRDEAAKLQTTKVKKPTGTRNLYLAREGLIRAGTKAAEGVSAADMAKRERFELLKHQKLKDQNIFVSRTRLCLHNLPKAVDDKQLRKLLLSATSGEKGVRIKECRVMRDLKGVHGNMKGQSLGYAFAEFQEHEHALKALRLINNNPEIFGPLKRPIVEFSLEDRRKLKMKELRIQRSLQKMRSKPATGEPQKGQPEPAKDQQQKAAQHHTEEQSKVPPEQKRKAGSTSWTGFQTKAEVEQVELPDGKKRRKVLALPSHRGPKIRLRDKGKVKPVHPKKPKPQINQWKQEKQQLSSEQVSRKKAKGNKTETRFNQLVEQYKQKLLGPSKGAPLAKRSKWFDS | binds |
| DHX30 (protein, UniProt Q7L2E3 1-1194) MFSLDSFRKDRAQHRQRQCKLPPPRLPPMCVNPTPGGTISRASRDLLKEFPQPKNLLNSVIGRALGISHAKDKLVYVHTNGPKKKKVTLHIKWPKSVEVEGYGSKKIDAERQAAAAACQLFKGWGLLGPRNELFDAAKYRVLADRFGSPADSWWRPEPTMPPTSWRQLNPESIRPGGPGGLSRSLGREEEEDEEEELEEGTIDVTDFLSMTQQDSHAPLRDSRGSSFEMTDDDSAIRALTQFPLPKNLLAKVIQIATSSSTAKNLMQFHTVGTKTKLSTLTLLWPCPMTFVAKGRRKAEAENKAAALACKKLKSLGLVDRNNEPLTHAMYNLASLRELGETQRRPCTIQVPEPILRKIETFLNHYPVESSWIAPELRLQSDDILPLGKDSGPLSDPITGKPYVPLLEAEEVRLSQSLLELWRRRGPVWQEAPQLPVDPHRDTILNAIEQHPVVVISGDTGCGKTTRIPQLLLERYVTEGRGARCNVIITQPRRISAVSVAQRVSHELGPSLRRNVGFQVRLESKPPSRGGALLFCTVGILLRKLQSNPSLEGVSHVIVDEVHERDVNTDFLLILLKGLQRLNPALRLVLMSATGDNERFSRYFGGCPVIKVPGFMYPVKEHYLEDILAKLGKHQYLHRHRHHESEDECALDLDLVTDLVLHIDARGEPGGILCFLPGWQEIKGVQQRLQEALGMHESKYLILPVHSNIPMMDQKAIFQQPPVGVRKIVLATNIAETSITINDIVHVVDSGLHKEERYDLKTKVSCLETVWVSRANVIQRRGRAGRCQSGFAYHLFPRSRLEKMVPFQVPEILRTPLENLVLQAKIHMPEKTAVEFLSKAVDSPNIKAVDEAVILLQEIGVLDQREYLTTLGQRLAHISTDPRLAKAIVLAAIFRCLHPLLVVVSCLTRDPFSSSLQNRAEVDKVKALLSHDSGSDHLAFVRAVAGWEEVLRWQDRSSRENYLEENLLYAPSLRFIHGLIKQFSENIYEAFLVGKPSDCTLASAQCNEYSEEEELVKGVLMAGLYPNLIQVRQGKVTRQGKFKPNSVTYRTKSGNILLHKSTINREATRLRSRWLTYFMAVKSNGSVFVRDSSQVHPLAVLLLTDGDVHIRDDGRRATISLSDSDLLRLEGDSRTVRLLKELRRALGRMVERSLRSELAALPPSVQEEHGQLLALLAELLRGPCGSFDVRKTADD | binds |
| NOP16 (protein, UniProt Q9Y3C1 1-178) MPKAKGKTRRQKFGYSVNRKRLNRNARRKAAPRIECSHIRHAWDHAKSVRQNLAEMGLAVDPNRAVPLRKRKVKAMEVDIEERPKELVRKPYVLNDLEAEASLPEKKGNTLSRDLIDYVRYMVENHGEDYKAMARDEKNYYQDTPKQIRSKINVYKRFYPAEWQDFLDSLQKRKMEVE | binds |
| NIP7 (protein, UniProt Q9Y221 1-180) MRPLTEEETRVMFEKIAKYIGENLQLLVDRPDGTYCFRLHNDRVYYVSEKIMKLAANISGDKLVSLGTCFGKFTKTHKFRLHVTALDYLAPYAKYKVWIKPGAEQSFLYGNHVLKSGLGRITENTSQYQGVVVYSMADIPLGFGVAAKSTQDCRKVDPMAIVVFHQADIGEYVRHEETLT | binds |

Molecular target: SMARCA4 (human (endogenous in G401)) (UniProt P51532)
Experiment: affinity purification with mass spectrometry; BRG1 (G7) antibody cross-linked to protein G magnetic beads; 800 ug G401 nuclear extract (EB300: 300 mM NaCl, 1% NP-40), overnight at 4 C; on-bead digestion, LC-MS/MS, label-free; cells induced 48 h with doxycycline to re-express SMARCB1 …; for partners told as kept, also the W281P and I315R cells

| Molecule | binding |
| --- | --- |
| BRD9 (from UniProt Q9H8M2 1-597) | binds |
| GLTSCR1 (from UniProt Q9NZM4 1-1560) | binds |
| PHF10 (protein, UniProt Q8WUB8 1-498) MAAAAGPGAALSPRPCDSDPATPGAQSPKDDNEDNSNDGTQPSKRRRMGSGDSSRSCETSSQDLGFSYYPAENLIEYKWPPDETGEYYMLQEQVSEYLGVTSFKRKYPDLERRDLSHKEKLYLRELNVITETQCTLGLTALRSDEVIDLMIKEYPAKHAEYSVILQEKERQRITDHYKEYSQMQQQNTQKVEASKVPEYIKKAAKKAAEFNSNLNRERMEERRAYFDLQTHVIQVPQGKYKVLPTERTKVSSYPVALIPGQFQEYYKRYSPDELRYLPLNTALYEPPLDPELPALDSDGDSDDGEDGRGDEKRKNKGTSDSSSGNVSEGESPPDSQEDSFQGRQKSKDKAATPRKDGPKRSVLSKSVPGYKPKVIPNAICGICLKGKESNKKGKAESLIHCSQCENSGHPSCLDMTMELVSMIKTYPWQCMECKTCIICGQPHHEEEMMFCDMCDRGYHTFCVGLGAIPSGRWICDCCQRAPPTPRKVGRRGKNSKEG | binds |

Molecular target: SMARCA4 (human (endogenous in G401)) (UniProt P51532)
Experiment: affinity purification with mass spectrometry; as a1, G401 cells induced 48 h to express SMARCB1 I315R in place of the wildtype; compared with the wildtype condition

| Molecule | binding |
| --- | --- |
| CABIN1 (from UniProt Q9Y6J0 1-2220) | binds |
| QSER1 (from UniProt Q2KHR3 1-1735) | binds |
| TRIM28 (from UniProt Q13263 1-835) | binds |
